Test results: article PMC1940015
Substitutions are numbered along the chain they refer to. Results are given in words; binding and its absence hold for the method and conditions named. Binding seen in cells or lysates may run through a third protein. Some binding calls cover weakened binding; strength is not graded here.

Amino acid sequences for entries named in this document (tags omitted).
UniProt Q66H76: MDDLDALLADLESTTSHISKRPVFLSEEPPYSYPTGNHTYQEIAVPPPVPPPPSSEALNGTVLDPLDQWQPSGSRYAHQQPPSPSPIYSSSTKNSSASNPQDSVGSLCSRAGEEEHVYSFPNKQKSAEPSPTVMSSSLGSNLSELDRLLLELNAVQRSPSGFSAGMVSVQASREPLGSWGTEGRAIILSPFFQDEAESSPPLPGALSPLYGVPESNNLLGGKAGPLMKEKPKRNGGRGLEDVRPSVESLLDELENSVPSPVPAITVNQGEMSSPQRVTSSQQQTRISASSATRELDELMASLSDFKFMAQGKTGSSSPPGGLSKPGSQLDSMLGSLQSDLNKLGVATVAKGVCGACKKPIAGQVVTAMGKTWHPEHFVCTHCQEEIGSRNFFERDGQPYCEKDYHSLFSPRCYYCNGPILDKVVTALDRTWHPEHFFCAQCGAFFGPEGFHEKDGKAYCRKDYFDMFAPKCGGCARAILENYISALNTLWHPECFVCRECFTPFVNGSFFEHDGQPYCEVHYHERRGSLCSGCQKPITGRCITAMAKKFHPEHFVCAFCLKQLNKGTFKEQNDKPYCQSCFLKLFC

How the values were obtained:
[1] = target: T1, α4E983A (human) (UniProt P13612); assay: co-IP; 1% Triton X-100 lysates of biotin-labelled PC12 cells expressing the α4 constructs; immunoprecipitated overnight at 4°C with anti-human α4 extracellular domain antibody; beads washed with 0.5 M NaCl, 1% NP40 buffer; western blot with anti-paxillin antibody
T1 sequence (chain, biotin (cell surface molecules labelled with NHS-LC-Biotin)): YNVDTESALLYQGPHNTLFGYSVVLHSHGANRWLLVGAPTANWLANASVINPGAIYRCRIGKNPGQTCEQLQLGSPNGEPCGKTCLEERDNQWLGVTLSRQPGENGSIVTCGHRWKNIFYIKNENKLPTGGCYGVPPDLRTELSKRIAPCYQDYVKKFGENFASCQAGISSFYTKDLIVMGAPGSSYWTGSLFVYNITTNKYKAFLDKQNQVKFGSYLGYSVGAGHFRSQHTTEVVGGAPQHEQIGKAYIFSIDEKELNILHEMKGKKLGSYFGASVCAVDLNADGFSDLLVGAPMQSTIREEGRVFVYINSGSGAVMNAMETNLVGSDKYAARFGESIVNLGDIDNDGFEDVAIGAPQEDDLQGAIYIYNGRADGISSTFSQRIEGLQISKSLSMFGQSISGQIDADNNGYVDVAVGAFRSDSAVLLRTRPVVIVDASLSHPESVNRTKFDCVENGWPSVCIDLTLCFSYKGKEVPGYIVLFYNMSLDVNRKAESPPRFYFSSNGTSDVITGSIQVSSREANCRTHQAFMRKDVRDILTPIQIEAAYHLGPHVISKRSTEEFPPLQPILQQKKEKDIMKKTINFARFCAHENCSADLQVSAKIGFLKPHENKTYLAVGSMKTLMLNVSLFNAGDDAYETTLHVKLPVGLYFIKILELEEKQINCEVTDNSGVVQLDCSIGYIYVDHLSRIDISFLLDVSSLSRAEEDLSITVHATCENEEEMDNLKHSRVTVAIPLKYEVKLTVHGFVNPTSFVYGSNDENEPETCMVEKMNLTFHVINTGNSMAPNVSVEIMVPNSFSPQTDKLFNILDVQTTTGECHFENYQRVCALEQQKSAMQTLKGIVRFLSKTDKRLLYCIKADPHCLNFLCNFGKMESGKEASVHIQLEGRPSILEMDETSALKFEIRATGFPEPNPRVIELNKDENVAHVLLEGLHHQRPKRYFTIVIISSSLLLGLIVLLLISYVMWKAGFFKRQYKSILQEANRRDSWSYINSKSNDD

[2] = target: T2, α4Y991A (human) (UniProt P13612); assay: as above
T2 sequence (chain, biotin (cell surface molecules labelled with NHS-LC-Biotin)): T1 sequence (chain, biotin (cell surface molecules labelled with NHS-LC-Biotin)) with A983E, Y991A

binding [1]: binds
binding [2]: binds
Substance: paxillin (endogenous in PC12 cells) (from UniProt Q66H76 1-586)
